Each number is a percent effect as filed.
How 0% and 100% were set is not recorded. Most values in the screen are low, and negative values occur.
Compounds were drawn at random from those tested, without regard to their results.
A dash means the value is not listed here; it may have been measured.

Mtb growth Cornell: 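Whole-cell assay for inhibitors of Mycobacterium tuberculosis growth, labelled Cornell in the record; the read-out is not stated. The concentration is filed as 10 mM, unlikely as a test dose, so the dose is not known. The record gives no direction; compounds strong in two other growth screens of this library score well above the rest, so higher reads as stronger inhibition. Of about 53,000 compounds tested this way, about 900 (1.7%) reached 50% or more in at least one test.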
Mtb heat-shock: 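Assay on Mycobacterium tuberculosis, filed only as a heat shock assay from Cornell; the read-out is not stated. The concentration is filed as 10 mM, unlikely as a test dose, so the dose is not known. Higher reads as stronger inhibition (inferred: compounds with an IC50 in retests scored well above the rest). Of about 69,000 compounds tested this way, about 930 (1.4%) reached 50% or more in at least one test.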

| Compound | Mtb growth Cornell | Mtb heat-shock |
|---|---|---|
| `CCc1nccn1C1CCCN(C(=O)c2cncn2-c2ccccc2)C1` (centres undefined) | -41.66% | 10.73% |
| `CSc1ccc(CCN2CCN([C@H]3CCCC[C@@H]3O)CC2)cc1` | 13.98% | -15.77% |
| `COc1ccc2nnc(CCC(=O)Nc3nc4c(s3)CCCC4)n2n1` | 0.1502% | -3.827% |
| `COc1cc(CNC(=O)CNc2cc(Cl)ccc2OC)ccn1` | 32.23% | 11.18% |
| `COc1ccc(CN2C[C@@H](CN(C)C)[C@@H](CO)C2)c(Cl)c1OC` | 4.114% | -25.37% |
| `Cn1cc(-c2nnc3sc(C4CCC4)nn23)cn1` | 9.698% | -1.831% |
| `O=C(O)C(F)(F)F.[H][C@@]12CN(C(=O)c3ccncc3F)C[C@]1([H])OCCN2C(C)C` | 26.1% | 0.5451% |
| `CN1CCCN(c2nccc(-c3cncnc3C3CCCCC3)n2)CC1` | -55.4% | -46.82% |
| `CCn1ccnc1CN1CCN(C(C)C(=O)NCc2ccco2)CC1` (centres undefined) | -15.8% | -35.02% |
| `O=C(c1ccc[nH]1)N(Cc1ccc(O)cc1)CC1CC1` | 43.3% | 2.136% |
| `COc1cc(CNCC(O)c2ccc(F)c(F)c2)cc2c1OCO2` (centres undefined) | 11.46% | 20.32% |
| `Cc1ccc(CN2CCC(n3cc(C(O)c4ccccc4)nn3)CC2)o1` (centres undefined) | - | -29.77% |
| `COCCN1CCN(CCCS(=O)(=O)N(C)C)CC1C` (centres undefined) | - | -3.443% |
| `CC(SCCS(C)(=O)=O)c1nc(Cc2ccccc2)no1` (centres undefined) | 6.876% | -3.365% |
| `CNC(=O)c1cccc(C2CNCCN2C(=O)c2cccc(F)c2)c1.Cl` (centres undefined) | -45.7% | -24.93% |
| `O=C1NC2(CCN(Cc3cccnc3)CC2)CC1c1ccncc1` (centres undefined) | -1.273% | -0.1488% |
| `COc1ccc(CC(C)Nc2cccc(F)c2)cc1` (centres undefined) | 3.225% | 7.921% |
| `Cc1ccc(CNC2CCCN(Cc3noc(C4CC4)n3)C2)s1` (centres undefined) | - | -14.3% |
| `O=C(Cc1ccc(F)cc1)NCC1CCN(Cc2ccsc2)CC1` | 18.53% | 4.343% |
| `[H][C@]12CCN(C(=O)Cc3ccc(C)cc3)[C@@]1([H])CCC(=O)N2` | 5.267% | -21.84% |
| `[H][C@@]12C[C@H](C(=O)N3CCCC3)[C@@]([H])(CN(C(=O)NC(C)C)C1)O2` | -34.22% | -9.427% |
| `COc1ccc(N2CCN(CC(O)c3ccc(C)cc3C)CC2)cc1` (centres undefined) | 26.93% | 15.42% |
| `CC(C)[C@H](NS(C)(=O)=O)C(=O)NCc1cc(-c2cccc(Cl)c2)nn1C` | 0.3258% | 0.4428% |
| `CCc1noc(CN2CCCC(Cn3nc(C)nc3C)C2)n1` (centres undefined) | -21.04% | -11.71% |
| `CCOC(=O)N1CCN(c2nc(C)ncc2CC)CC1` | -0.9666% | 13.65% |
| `O=c1[nH]c(N2CCN(C3CC3)CC2)nc2c1cnn2-c1ccccc1` | - | -9.503% |
| `O=C(O)C(F)(F)F.[H][C@@]12COC[C@]1([H])[C@@H](OC)CN2Cc1cccc(C#N)c1` | 5.259% | -1.425% |
| `CN(C)C(=O)c1cc2c(nc1NCC1CC1)CCNCC2` | - | -26.84% |
| `COc1ccc2nc(CCNC(=O)c3cc(CC(C)C)no3)[nH]c2c1` | 13.21% | -24.18% |
| `O=C(c1ccc(=O)[nH]n1)N1CCNCC1c1ccccc1` (centres undefined) | 10.08% | 17.66% |
| `Cc1cc(N(Cc2cccs2)C2CC2)n2nc(C(F)(F)F)nc2n1` | 21.11% | -10.94% |
| `O=S(=O)(CCOc1ccc(F)cc1)Nc1cnn(CC(F)F)c1` | -28.64% | 7.859% |
| `Cc1cccc(CN2CCC(c3nnsc3S(C)(=O)=O)CC2)c1` | -4.729% | -2.84% |
| `CCCS(=O)(=O)NC(C)C(=O)NCc1ccnc(N2CCCC2)c1` (centres undefined) | - | 3.369% |
| `Cc1ccc(-c2nc(CNCC3CN(C)CCO3)co2)cc1` (centres undefined) | 7.82% | -19.18% |
| `CN(C)c1nc(NCCCN2CCc3ccccc32)ncc1F` | 18.78% | -1.091% |
| `Cc1csc(CN(C)c2cc(C)nc3c(C)c(C)nn23)n1` | 39.72% | 96.63% |
| `COc1cnc(N2CCC(c3ncc[nH]3)CC2)nc1` | - | -27.54% |
| `COc1ccc(Cl)cc1NC(=O)CN1CCc2nc(NC(C)=O)sc2C1` | -35.93% | 5.908% |
| `Cc1ccc(NC2CCN(C(=O)Cc3csc(C)n3)CC2)nn1` | 0.5698% | 11.47% |
| `COC[C@@H]1CCC[C@]12CN(S(=O)(=O)c1cccs1)CCO2` | 19.39% | -20.12% |
| `COc1ccnc(NC2CCN(CC(=O)N3CCCC3)CC2)n1` | - | -0.7102% |
| `CN1CCC(N(CCc2ccccc2)C(=O)c2cc[nH]c2)CC1` | 4.775% | 10.48% |
| `Cc1ccc(-c2nc(CN3CCCC(Cn4cncn4)C3)cs2)o1` (centres undefined) | - | 9.33% |

Once more, the final 2:

Compound,Mtb growth Cornell,Mtb heat-shock
CN1CCC(N(CCc2ccccc2)C(=O)c2cc[nH]c2)CC1,4.775%,10.48%
Cc1ccc(-c2nc(CN3CCCC(Cn4cncn4)C3)cs2)o1 (centres undefined),-,9.33%

The values are deposited in ChEMBL (CHEMBL3988442, “University of Dundee, Small-Polar-MMV Screening Library” (2021)).